For this test, the target named is T1, FLAG-HA-Rbm10 (S. pombe) (UniProt P87143).
T1 sequence: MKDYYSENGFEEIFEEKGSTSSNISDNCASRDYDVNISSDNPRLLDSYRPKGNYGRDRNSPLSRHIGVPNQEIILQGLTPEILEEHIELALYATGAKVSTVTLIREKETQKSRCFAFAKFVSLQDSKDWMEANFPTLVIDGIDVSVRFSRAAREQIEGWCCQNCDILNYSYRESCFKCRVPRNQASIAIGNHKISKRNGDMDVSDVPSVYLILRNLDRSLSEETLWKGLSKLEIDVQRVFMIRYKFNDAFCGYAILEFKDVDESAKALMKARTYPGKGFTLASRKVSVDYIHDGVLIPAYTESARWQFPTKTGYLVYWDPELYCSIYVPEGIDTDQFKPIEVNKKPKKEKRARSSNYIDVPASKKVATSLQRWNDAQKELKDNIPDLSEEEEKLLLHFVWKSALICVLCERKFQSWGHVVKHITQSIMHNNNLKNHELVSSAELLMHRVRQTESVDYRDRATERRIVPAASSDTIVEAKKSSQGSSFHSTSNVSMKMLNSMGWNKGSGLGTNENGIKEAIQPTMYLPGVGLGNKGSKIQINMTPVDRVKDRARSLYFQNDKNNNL
The test can be described thus: affinity purification with mass spectrometry; two-step purification (anti-FLAG beads, 3xFLAG peptide elution, then uMACS HA magnetic beads) of overexpressed FLAG-HA-Rbm10 from S. pombe lysate with Benzonase; three independent purifications; control purification from an untagged strain.

Results are given in words; binding and its absence hold for the method and conditions named. In cells and extracts the contact can be indirect. A yes stands for co-enrichment or nearness to the bait. Other partners may have been found. Where a sequence is shown, tags or fusion partners need not be part of it.

B1: Prp12 (protein, UniProt Q9UTT2 1-1206)
chain: MDTFPSLFLYSLTIQNSNYVQSSCAASLSGKKAQEIVIATESRLLIYKVDATDGRMNCILNQNCFGIIRNVAPLRLTGFKRDYLVVTSDSGRITILEYNVEKNKLVPIYQETFGKSGIRRVVPGEYLAIDAKGRAAMIASVEKNKLVYVLNRDSEANLTISSPLEAHKANNICFHLIGLDTGYANPIFAALEVDYSEIDHDSTREAFTSSEKVLSYYELDLGLNHVVKRWSKVVDRNSYMLIPVPGGNDGPSGTLVISNGWISYRHLQKAFHQIPILRRQAASANAISTPWNQVNSNSANDGPLIVSAVLHKMKGSFFYLLQTGDGDLLKLTIEHDGQGNVVELRLKYFDTVPLAVQLNILKTGFLFVATEFGNHQLYQFENLGIDDDELEITSLDFQAQDNEVGTKNVHFGVRGLQNLSLVEEIPSLYSLTDTLLMKAPSSGEANQLYTVCGRGSNSSLRQLRRGLETTEIVASELPGAPIAIWTLKLNQTDVYDSYIILSFTNGTLVLSIGETVEEISDSGFLSSVSTLNARQMGRDSLVQIHPKGIRYIRANKQTSEWKLPQDVYVVQSAINDMQIVVALSNGELVYFEMSDDVEGGQLNEYQERKTLTANVTSLALGPVQEGSRRSNFMCLACDDATVRVLSLDLYTTLENLSVQALSSPANSLCIIPMNVNGVSTLYLHIGLMNGVYLRTVIDVTSGQLLDTRTRFLGPRAVKIYPITMKNQNTVLAVSSRTFLAYSYQQNLQLSPIAYSAIDHASSFASEQCPEGIVAIQKNTLKIFTVDSLQDDLKSDIYPLICTPRKIVKHPNFPVLYILQSERNFDSFKYAQENGDVGSSYTKEKQNEHTSKSWVSFISVFDMISKKIIHESPLGDNEAAFSMTAAFFKNRDEFFLVAGSATNMDLECRTCSHGNFRVYRFHDEGKKLELISHTEIDGIPMALTPFQGRMLAGVGRFLRIYDLGNKKMLRKGELSAVPLFITHITVQASRIVVADSQYSVRFVVYKPEDNHLLTFADDTIHRWTTTNVLVDYDTLAGGDKFGNIWLLRCPEHVSKLADEENSESKLIHEKPFLNSTPHKLDLMAHFFTNDIPTSLQKVQLVEGAREVLLWTGLLGTVGVFTPFINQEDVRFFQQLEFLLRKECPPLAGRDHLAYRSYYAPVKCVIDGDLCEMYYSLPHPVQEMIANELDRTIAEVSKKIEDFRVRSF
In the case of B1, the binding result is reported as “binds”.

B2: Asf1/Cia1 (protein, UniProt O74515 1-262)
chain: MSIVNILSVNVLNNPAKFSDPYKFEITFECLEPLKSDLEWKLTYVGSATSQSYDQILDTLLVGPIPIGINKFVFEADPPNIDLLPQLSDVLGVTVILLSCAYEDNEFVRVGYYVNNEMEGLNLQEMDDAEIKKVKVDISKVWRSILAEKPRVTRFNIQWDNPDFDDAPPVQPDADEEEEEEEADEMEEEFDEEGEGDEEEEEEDDGDGDGEGDGDGEGENDGKGSEEEEEEEIDIEEEEEESALANASAAEEKPEEKPETSQ
B2: the binding entry was “binds”.

B3: Rsd1 (protein, UniProt O13845 1-603)
chain: MQLDAEALAEAPFRKQEVPQNQENQQKASSSFHESSLTSSTHSHPSNPPPPPTRLHDRSFKPVSKNYESEGRLTPPPVSMGYRYARSSKQSFQREDSGYNDDVVTNSSSHRTPRHHRRSYSPRSDYGSRSPSPHSSVDSHQSRSPVRSRDRDRSSRSSRSRHPSSRSRHRYDDYSRSPPYSSRHSRSRRRYEERSSRSSRAHDYDYEDLRDDDRSHERKRSRSRPRERSSKLSEEERDRRTVFVSQLANRLTSRELYDFFEQAGPVRDAQIVRDKISGRSKGVAYVEFCHEDSVQAAIALSGKRLLGLPVIVQLTEAEKNRKAREAAELARAASAEIPFHRLCVSNIHFNLTDEDVKAIFEPFGDIEFVHLQRDDQNRSKGFGYIQYRNPISARNALEKMNGFDLAGRNMRVCLGNDKFTTETTSSMLKRFDETLARQERSQPSQRNGGSSTYESQDYREAAPLSPTEEESRPITRDELMKKLARSEDISDNSKLVSEPEPPIRSRCALLENMFNPAEETSPNWVQELEQDVKEECDEKYGKVVHIAVVPNELGQIFVKFENADFAEKAITGLHQRWFGGRTIKASILPETDYYFKFPNAKTA
Regarding B3, the binding result is recorded as “binds”.

B4: Sap114 (protein, UniProt O13900 1-481)
chain: MSSLMEFQDRNTTNNETEHQKSITDQSSSVPAGVILPPPAIREIIDKSASYVARNGPAFEEKIRQNEQANTKFAFLHANDPYHPYYQHKLTEAREGKLKSHATGLSTQKTSTLARPIQKPIEATIPAPSPYLFSEPLPSISSLDLDVLRLTARYAAVRGSSFLVSLSQKEWNNTQFDFLKPNNALYPYFMRIVQQYTSLIREPISSPEQELRENVRDPYSLLSKIQPRVRWQSHMESQKKKQKEEAEKEKLEYAQIDWNDFVVVEVIQFTKSDEHAKLAKPTNLADLQTATLEQKSAMFTMPDQNYTIEEAPPTAEPWEPISAPKKQEFGVSLPPSLASPEKGGISSTTSVSPAAQASPVLSTTTQPKVQKPVPKAFQPKVPMEISPFSGELVPATELEEHMRLKLLDPRWQEQRKVEESRKSTLNLENVNVAANMKRLVSQRTDLFDVQNGVEISQEEIERRKRAATQSAWGATPTNKRR
Take B4: the binding entry is listed as “binds”.

B5: Prp24 (protein, UniProt Q9USY2 1-1014)
chain: MSQIQDLKDENVEMDIDPQEQNEKKPLLLDELTKFTILHPYNYDSHIKLIEELKRLDKKKELSEARKTFQSIFPLSEDLWVDYLLDECKNCRTLDDYVRIKTLFDLAVQDYLSIKIWCMYLEFTLNLMDTSSFEQEQSELNGVITLTDAHSLFERAYQTCKFHFSKSQCVWTLYLEFLQTFGDALFEGEEEQEIVFKNKIYDFHIDRLKLPHEQIEETFTSLSTFVTNNWSPSEYEDVMVKSNKVYETTLKRNAKIFNKELLLNSANHSLEAYMDLINDESRRSTAELQYITTLYERAIVLYPLIPELWLQYTAWLSKVDFSSSQASSVAERATRNCSWIGRIWSIKLTYMTLSGASTSAVCEEKDRCLNSNLLVNFDEVIDFFSGFLKACLYLSSNEDKPQEFLKHQIHKVEDYLRKNHKGSKDARMRIELSKIYLYSEISDFESVEKCWSDMFHDFQNQALYWISRYISTMKYNPELAAETLKKSLYKNVDQPQLLFQFYQSIMDLNNDCFTNTSHLYDVLNAQRISFKRQLDSFAEETKQTVENTEPLKVPQADDTAALSKKRKPGQEGDVFKKSKPIEQHRNREELTVLVTNLPSDISENELKIFFKDCGNIIRIFILEDNQKDVKVAQIEFSETSEVLAAKTRDLKSIRGHEISVQIHVDTNLYVTNFPPTYDELDITKLFSAYGNVVDVRFPSLRYNTNRRFCYVQMRKPDEAHNALQLHKKLLEEKYPIQVFISDPLRRTPRSGAVYEGRELYVTNIDFKVNEKDVETFFRDYGQVESVRIPKRFNQHKGFGYVVMTTNQDAENALSAAGKQLGNRVLNVVLSKPRESLEKTRVSSNDNRTLAKSFETTESNKMSTPKKSFEQIKSKSLGVTNVDGTVNEARLRSLFESYGKLYRVVLHPEHEGAVVEFLDIHDAGKASLALEGHEIGGRLLHITTVNEMMHNVPSSMNHSDYNTSATRPRRLGSRTFQGFNSNHSNINSKKDDLDDKEMQIDAPKSNDDFRKMFLK
Consider B5, for which the binding result is “binds”.

B6: Prp31 (protein, UniProt O42904 1-518)
chain: MSLADELLADLDDIEETTESTITDELGPDAKKRRLELQLEEGNGISAELENDLDITKISDSAQKLPSEVANKFNDNNENIYQLLNSTRLRDIIEGTEKYKGTEKQAITGNIEDDLEYHLIVDSNSIAMEIDDEILRLHRLVKEWYHDRFPELSSLVLNAFDYCKTVSSLLNDLDNSKTKLSFLPSATVMVIATTATTTVGKPLPDEMIKNVKNCCEAIQQLGEEKQKIIEYVQSRISVVAPNLSAVVGSTTAANLIGIAGGLTRLGKFPACNLPALGKRRLTTIGINNPAVSGDYGFLYMSEIVQKTPPDVRKQAIRMTAAKVALAARIDSIHEYPDGSFGISARKEVERKIEKLLEPPSQKPTVALPVPDDRPKRRRGGRRIRKMKEQYAVTELRRLQNRVAFGKEEAEVFNFDETEGLGMLGQEGEGKIRAVSIDSRTKLRLPKARKAQLQSMAQKNPLAASGLQSSLSFTPIQGIELVNPLLQRQQKVEEANKWFRDGVFTQIKKDSNEPKNKFS
For B6, the binding entry is reported as “binds”.

B7: Prp5 (protein, UniProt O13615 1-473)
chain: MTEAKNISDDTDVLSLTTNSLRTSKTLFGAEFGSVTSFDDTVAQNLKRTYKEHLEYGSVLGGTVGKRKNRHYEEDTIGSNALTVRADSENPSSQVITKFSDPNKKIAGQVSMQSLEKIKGVPEAAHRIAGESQASLVKRTLAEQIRPEWHAPWTLMRVISGHLGWVRCVDVEPGNQWFCTGAGDRTIKIWDLASGVLKLTLTGHIATVRGLAVSPRHPYLFSCGEDKMVKCWDLETNKVIRHYHGHLSGVYALKLHPTLDVLVTAGRDAVARVWDMRTRQNVHVLSGHKSTVASLAVQEFDPQVVTGSMDSTIRLWDLAAGKTLTTLTHHKKTVRALSLHPDEFTFASGSSDNIKHWKFPEGAFMGNFEGHNAIVNTLSINSDNVMFSGADNGSMCFWDWKSGHKYQELQSVVQPGSLDSEAGIFASSFDKTGLRLITCEADKSVKIYKQVDNATPETHPNLPWTPSNLRRRY
Regarding B7, the binding result was “binds”.

B8: Prp19 (protein, UniProt O14011 1-488)
chain: MFCSISGETPKEPVISRVSGNVYEKRLIEQVIRETSKDPVTQQECTLEDLVPVKVPDFVRPRPPSATSLPALLSLFQEEWDSVALEQFELRRNLTETKQELSTALYSLDAALRVISRLTKERDEAREALAKFSDNIGTVSSKTIEVQEVEMGESDDQLKTSLRSTVEKTFQELSSKRKRTKLQPKWATDDAVSQLLQATPSTILENLETESTTSFFPSPENSSFVLCLHKDELLCLDIQSNSTLKIFEGSALACCWLTSSKIAVATADAISIFEFPVSSSGLQSVGEPTSSIPIDEKVNFLQAHPSGEYLLAASNEKCYIFSLKSQVYNITVAQHITSLAVHPDGNLFVAGLENGELRFFETSSGNELTKFGPHSSPVKTLQFGENGYWLVVTTNDDSDIFIWDLRKSELVQKIPLQTKVAAVSLDITSQLLVSSDGETLYVHIYVKSSKSWRCMSQTHVSSISNLVWLNELHQLLFSTSNGAILRLG
For B8, the binding entry is recorded as “binds”.
